± gives the uncertainty stated by the source. This is a selection; strong and weak results do not stand in their true shares.

This experiment deals with NCC-PMP1-C1. The experiment is described as follows: cell viability relative to DMSO control; higher = less growth inhibition. The settings on record: 10 µM; 72 h. How it is done:
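NCC-PMP1-C1 pseudomyxoma peritonei cells were seeded in 384-well plates coated with Matrigel and MEF (1e4 cells). Viability was read after 72 h by CCK-8 and expressed as % of the DMSO control, mean ± SD of duplicates.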
As for `COC(=O)[C@H](CCCN=C(N)N)NS(=O)(=O)c1ccc(C)cc1`, the cell viability (in general, a read-out of living cells in per cent, often relative to untreated cells) worked out at 89.7 ± 8.9%.

Values taken from the supplement of paper PMC8877412.
